Experimental data from PubChem BioAssay AID1347076 (National Center for Advancing Translational Sciences (NCATS), 2019).
Hit rate of the full screen: of about 400,000 compounds, about 13,000 (3.2%) were called active. The shares of active, inactive and inconclusive entries below differ from those in the screen. Calls come from the whole dose curve; as a rule, active = well fitted cell-killing curve with a large enough effect; inconclusive = small, poorly fitted or top-dose-only effect, or effect the other way; inactive = flat fitted curve, though single readings scatter. Potencies beside an inconclusive call are fits to weak or partial responses and may not hold up.

test: qHTS assay for MDR1-selective chemotherapeutics: Primary screen using the drug-selected MDR subline cells KB-V1; details: KB-V1 MDR cells viability, CellTiter-Glo, 72 h; activity change, negative = cytotoxicity: at 46.1 µM (top of the series); note: nearly all actives have a fitted effect of over 60% in size
How it was run: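 Cytotoxicity via CellTiter-Glo luminescence after 72 h compound exposure at 37 degrees C. Cells: drug-selected KB-V1 line, DMEM phenol-red free plus 10% FBS. Compounds tested at multiple concentrations; normalized data fitted to concentration-effect curves.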
% is set by controls: 0 for no effect and ±100 for the full control effect; potency is the fitted concentration of half-maximal effect.

SMILES	Potency	activity change, negative = cytotoxicity
COc1ccc(-c2nc(NC(=O)c3cc(C(C)(C)C)nn3C)sc2C)cc1	active: 2.31 µM	
COCCn1c(C)cc(C(=O)COC(=O)c2cccnc2SC)c1C		inactive: 2.37%
CCC(=O)Oc1ccc(C(=O)Nc2ccc3c(c2)C(=O)N(C2CCCCC2)C3=O)cc1	inconclusive: 14.6 µM [cytotoxic, partial curve]	
O=C(Nc1ccc([N+](=O)[O-])cc1)Nc1ccc(Cl)cc1F	active: 18.4 µM	
CSc1nc(O)c(N=Nc2ccc(F)cc2F)c(=O)[nH]1	inconclusive: 18.4 µM [cytotoxic, partial curve]	
Cc1cccc(C)c1NC(=O)C1(C)CSCC(=O)N1C1CCN(Cc2ccccc2)CC1 (stereo unspecified)	inconclusive: 20.6 µM [cytotoxic, partial curve, poor fit]	
COc1cccc(CNc2ccc(F)c(Cl)c2)c1		inactive: -5.84%
CCOC(=O)C1CCN(C(=O)c2c(C)oc3c2C(=O)c2ccccc2C3=O)CC1	active: 18.4 µM	
Cc1ccc(S(=O)(=O)Cc2nc(-c3ccc(C(=O)NCCCOC(C)C)cc3)oc2C)cc1	inconclusive: 0.0065 µM [cytotoxic, partial curve, poor fit]	
O=C(O)c1cnc(-c2ccccc2)nc1Sc1ccc(Cl)cc1Cl	inconclusive: 20.6 µM [cytotoxic, single point]	
CCn1c(=O)c2cc(C(=O)N(C)c3ccccc3F)sc2c2ccccc21	inconclusive: 29.1 µM [cytotoxic, single point]	
Cc1ccccc1NC(=O)Cc1nc(COC(=O)c2cc(Br)ccc2O)cs1		inactive: 2.87%
CSc1ncc2c(n1)-c1ccccc1N(Cc1ccccc1)S2(=O)=O		inactive: -2.76%
Cc1ccc2cccc(OCC(=O)Nc3ccc4c(c3)OCO4)c2n1	inconclusive: 7.31 µM [cytotoxic, partial curve]	
COc1ccccc1N1CCN(C/C(O)=C(\C#N)c2nc(-c3ccccc3)cs2)CC1	inconclusive: 18.4 µM [cytotoxic, single point]	
c1ccc(C2=Nn3c(nnc3-c3cccs3)SC2)cc1	inconclusive: 10.3 µM [cytotoxic, partial curve, poor fit]	
CN1CCCC(C(=O)Nc2cccc(Cl)c2)CC1 (stereo unspecified)		inactive: 3.64%
CCOC(=O)C1=C(C)Nc2ncnn2C1c1c[nH]c2ccccc12 (stereo unspecified)		inactive: 1.97%
OCC1OC(n2cnc3c(N4CCCC4)ncnc32)C(O)C1O (stereo unspecified)	inconclusive: 29.1 µM [cytotoxic, single point]	
Fc1ccc(CNc2ccn3nc(-c4ccccc4)cc3n2)cc1		inactive: 4.82%
COc1cccc(CNC(=O)COC(=O)c2cc([N+](=O)[O-])ccc2N2CCCC2)c1	active: 7.31 µM	
C=CCC[C@@H](Cc1ccc(F)cc1)C(=O)OC[C@@H]1CCCN1C(=O)[C@@H](CC=C)CC(=O)N(CCO)Cc1ccccc1	inconclusive: 29.1 µM [cytotoxic, single point]	
O=C1c2[nH]nc(-c3ccc(F)cc3)c2C(c2ccccc2F)N1c1ccccc1 (stereo unspecified)	inconclusive: 20.6 µM [cytotoxic, partial curve, poor fit]	
CCOCCOc1nc2c(c(=O)n(C)c(=O)n2C)n1CCc1ccccc1	inconclusive: 1.46 µM [cytotoxic, full curve, poor fit]	

Molecules above with an NH in an aromatic ring (3):
SMILES	Potency	activity change, negative = cytotoxicity
CSc1nc(O)c(N=Nc2ccc(F)cc2F)c(=O)[nH]1	inconclusive: 18.4 µM [cytotoxic, partial curve]	
CCOC(=O)C1=C(C)Nc2ncnn2C1c1c[nH]c2ccccc12 (stereo unspecified)		inactive: 1.97%
O=C1c2[nH]nc(-c3ccc(F)cc3)c2C(c2ccccc2F)N1c1ccccc1 (stereo unspecified)	inconclusive: 20.6 µM [cytotoxic, partial curve, poor fit]	

The list continues:

SMILES	Potency	activity change, negative = cytotoxicity
Cc1ccc2[nH]c3c(=O)n(CC(=O)Nc4ccc(Br)cc4C)ncc3c2c1		inactive: 12.3%
COc1ccc(NC(=O)C2CCCC2)cn1		inactive: 11.5%
COc1ccc(Br)c(Cn2c(C)c(C(=O)NCc3ccccc3C(F)(F)F)sc2=O)c1	inconclusive: 9.2 µM [cytotoxic, partial curve]	
N#Cc1ccc(-c2nc3ccccc3nc2-c2ccccc2)cc1C#N	inconclusive: 23.1 µM [cytotoxic, single point]	
O=C(O)CSC(C(=O)Nc1ccc(Br)cc1)c1ccc(Cl)cc1 (stereo unspecified)	inconclusive: 29.1 µM [rising, single point]	
Cc1cc(N2CCN(S(=O)(=O)c3ccc(C)c(C)c3)CC2)c2ccccc2n1	active: 3.26 µM	
O=C(C1CCC1)N1CCc2cc(S(=O)(=O)NC3CCCc4ccccc43)ccc21 (stereo unspecified)	inconclusive: 10.3 µM [cytotoxic, partial curve]	
Cc1cccc(-c2nc3nc(C)cc(NC(C)c4ccccc4)n3n2)c1 (stereo unspecified)	inconclusive: 10.3 µM [cytotoxic, partial curve]	
COc1cccc(-c2cnc(C(O)c3cc(C)cc(C)c3)[nH]2)c1 (stereo unspecified)		inactive: 1.41%
Cc1cccc(NC(=S)Nc2cccc(C)n2)n1		inactive: 12.9%
CCc1ccc(OCC(=O)Nc2ncn[nH]2)cc1	inconclusive: 1.64 µM [rising, full curve, poor fit]	
COCCCNC(=O)c1cnc2sc(N3CCCCC3)nn2c1=O	inconclusive: 29.1 µM [rising, single point]	
CCOc1cc(N2CCOCC2)c(OCC)cc1NC(=O)COC(=O)c1cc(C)cc(C)c1	inconclusive: 20.6 µM [cytotoxic, single point]	
CCOc1cc(/C=C(/C#N)C(=O)Nc2ccc(O)cc2)cc(Br)c1O	inconclusive: 1.3 µM [cytotoxic, full curve, poor fit]	
COC(=O)c1ccc(/C=C/C(=O)c2ccc(OC)c(OC)c2)cc1	inconclusive: 29.1 µM [cytotoxic, single point]	
N#CCSc1nc2ccc(N3CCCCC3)cc2c(=O)n1Cc1ccccc1	inconclusive: 16.4 µM [cytotoxic, partial curve]	
COC(=O)c1cccc(NC(=O)CSc2nnc(-c3ccco3)o2)c1	inconclusive: 29.1 µM [rising, single point]	
CN(C)c1nc(N)nc(CSc2ncc(Cl)cc2Cl)n1	active: 14.6 µM	
CCCOc1ccc(C(C)=O)cc1Cc1c(O)nc(SC)[nH]c1=O		inconclusive: -32.2%
CCOc1ccc(NC(=S)NC(=O)/C=C/c2ccco2)cc1	inconclusive: 20.6 µM [cytotoxic, single point]	
CC(=O)NC1=C(C#N)C(c2ccccc2)c2c(ccc3ccccc23)O1 (stereo unspecified)	active: 6.51 µM	
COc1ccccc1N1CCN(C(=O)Cn2nnc(-c3cccs3)n2)CC1	inconclusive: 23.1 µM [cytotoxic, single point]	
O=C(N1CCCCC1)N1CCN(S(=O)(=O)c2ccc(Cl)cc2)CC1	inconclusive: 16.4 µM [cytotoxic, single point]	
Cc1cc(C)n(-c2nc3ccccc3nc2N2CCN(C(=O)c3ccc(Cl)cc3)CC2)n1		inactive: 1.29%

SMILES	Potency	activity change, negative = cytotoxicity
O=C(Cc1ccc(OCCc2ccccc2)cc1)NO		inconclusive: 14.7%
Cc1ccc2c(Cl)cc(Cl)c(OCC(=O)Nc3cccc(S(=O)(=O)N(C)C)c3)c2n1	inconclusive: 29.1 µM [cytotoxic, single point]	
CN(c1ccc(C(=O)N2CCN(Cc3ccccc3)CC2)cc1)S(=O)(=O)c1ccccc1		inactive: -16%
Cc1cccc(C)c1NC(=O)CN(C)C(=O)c1ccc(COc2ccccc2)cc1	inconclusive: 9.2 µM [cytotoxic, partial curve]	
Cc1ccc2oc(=O)c3cnn(CC(=O)NC4CCN(Cc5ccccc5)CC4)c3c2c1	inconclusive: 25.9 µM [cytotoxic, single point]	
Fc1ccc(CSc2ccc3nnc(-c4cccnc4)n3n2)cc1	inconclusive: 5.17 µM [cytotoxic, partial curve]	
Cc1ccccc1NC(=O)/C(C#N)=C/c1ccc(Cl)cc1Cl		inactive: 9.12%
Nc1ccc2nn(-c3cc([N+](=O)[O-])ccc3O)nc2c1		inactive: -0.35%
O=C(Cn1nnc(-c2ccccc2)n1)N/N=C/c1cccc([N+](=O)[O-])c1O		inactive: -29.7%
COc1cccc(NC(=O)CN(C)C(=O)c2cccc(S(=O)(=O)N3CCN(c4ccc(F)cc4)CC3)c2)c1	inconclusive: 18.4 µM [cytotoxic, single point]	
COC(=O)c1ccccc1S(=O)(=O)N(Cc1ccco1)Cc1cc2cc(OC)ccc2[nH]c1=O	active: 8.2 µM	
O=C(Cc1ccc2c(c1)OCCO2)N1CCN(S(=O)(=O)c2cccc(C(F)(F)F)c2)CC1	inconclusive: 18.4 µM [cytotoxic, partial curve, poor fit]	
COc1ccc(N(CC(=O)Nc2cccnc2)S(=O)(=O)c2ccccc2)cc1Cl	inconclusive: 2.91 µM [cytotoxic, partial curve, poor fit]	
C[C@@H]1CN([C@H](C)CO)C(=O)CCCn2nncc2CO[C@H]1CN(C)C(=O)CCC(F)(F)F		inactive: 11.5%
O=C(c1ccc(N2CCNCC2)cc1)c1cccnc1	inconclusive: 9.2 µM [cytotoxic, partial curve]	
Cc1ccc(CS(=O)(=O)c2ncc(Cl)c(C(=O)Nc3nnc(C(C)C)s3)n2)cc1	inconclusive: 14.6 µM [cytotoxic, single point]	
CCOc1ccc(C(=O)NCC(=O)OCCN2C(=O)c3ccccc3C2=O)cc1OCC	inconclusive: 20.6 µM [rising, single point]	
COc1ccc(N(C)C(=O)CCC(=O)Nc2ccc3nc(N4CCOCC4)cc(C)c3c2)c(OC)c1	active: 16.4 µM	
CC(C)CCNC(=O)C1CCN(C(=O)c2cc3sccc3n2Cc2ccc(Cl)cc2)CC1		inactive: 0%
CCCNC(=O)C1(C)CCCN(C(=O)/C=C/c2ccccc2)C1 (stereo unspecified)		inactive: -1.38%
COCCCNC(=O)c1cccc2c(=O)c(C)c(-c3ccccc3)oc12	inconclusive: 7.31 µM [cytotoxic, partial curve]	
COc1ccc(-c2nc(CS(=O)CC(=O)NCCc3ccc(Cl)cc3)c(C)o2)cc1OC (stereo unspecified)		inactive: 7.64%
CC(C)CC1C(=O)N(Cc2cn(CCC3OCCO3)nn2)CCS(=O)(=O)N1Cc1ccc(-c2ccc(F)cc2)cc1 (stereo unspecified)	inconclusive: 0.0052 µM [cytotoxic, full curve, poor fit]	
